Results deposited as PubChem BioAssay AID1259314 (Drosophila RNAi Screening Center, 2017).

- Assay: 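Modifiers of manganese chloride toxicity in fly cells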 (primary screen)
- Cells: Drosophila S2R+ cells
- Reagent: long dsRNA against Drosophila genes
- Duration: 5 days (4 days knock-down, then 1 day metal exposure)
- Treatment: manganese chloride added to 15 mM for 24 hours
- Read-out: 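Luciferase ATP signal used as a proxy for viable cell number, reported as one averaged z-score per dsRNA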
- Direction: mean ATP z-score: higher = more ATP than the plate average, more viable cells under manganese
- Hit rule: 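a mean ATP z-score past 1.5 in either direction is called active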
- Meaning of the calls: active = strong ATP change, up or down; inactive = no strong ATP change
Shown is an unselected part of about 3,100 deposited reagents. 289 of them (9.3%) were called active. 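Active includes both higher and lower ATP than plate average; check the z-score sign for direction.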 A plus sign joins genes that one reagent is predicted to hit. The record does not give: the amount of reagent.

After knock-down of shg (GeneID 37386) [DRSC04714] the results were mean ATP z-score -0.475; inactive. Against shg (GeneID 37386) [DRSC38948] the deposit lists mean ATP z-score -0.0802; inactive. Ptp4E (GeneID 31425) [DRSC18701] gave mean ATP z-score -0.0392; inactive. Depletion of Ptp4E (GeneID 31425) [DRSC36632] gave: mean ATP z-score -0.148; inactive. Against Ptp4E (GeneID 31425) [DRSC36633], the entry reads mean ATP z-score -0.201; inactive. After knock-down of stas (GeneID 32737) [DRSC20104], the record shows mean ATP z-score 3.18; active.

With knock-down of SMSr (GeneID 38823) [DRSC10999], the screen gave mean ATP z-score -0.974; inactive. Silencing of smo (GeneID 33196) [DRSC00837] resulted in: mean ATP z-score 5.12; active. Against smo (GeneID 33196) [DRSC28492], the values are mean ATP z-score 1.31; inactive. CngA (GeneID 36806) [DRSC07362] gave mean ATP z-score 0.29; inactive. For spdo (GeneID 318559) [DRSC13988] the deposit lists mean ATP z-score -1.38; inactive. Depletion of spdo (GeneID 318559) [DRSC24230] gave: mean ATP z-score -0.244; inactive.

With knock-down of cue (GeneID 38174) [DRSC08248], the screen gave mean ATP z-score -0.613; inactive. Against cue (GeneID 38174) [DRSC39507], the entry reads mean ATP z-score -0.203; inactive. After knock-down of Hip14 (GeneID 39747) [DRSC10570], the screen gave mean ATP z-score -0.0743; inactive. Knock-down of CG34135 + CG11768 [DRSC12702] gave: mean ATP z-score -0.216; inactive. With knock-down of CG34135 + CG11768 [DRSC38826], the screen gave mean ATP z-score 0.896; inactive. senju (GeneID 33734) [DRSC02366] scored mean ATP z-score -0.732; inactive.

With knock-down of senju (GeneID 33734) [DRSC39769] the results were mean ATP z-score -0.653; inactive. bond (GeneID 42657) [DRSC16135] scored mean ATP z-score -0.531; inactive. With knock-down of bond (GeneID 42657) [DRSC23724], the screen gave mean ATP z-score -0.112; inactive. With knock-down of kek1 (GeneID 34688) [DRSC03551], the record shows mean ATP z-score -0.319; inactive. Against kek1 (GeneID 34688) [DRSC36699], the values are mean ATP z-score 0.189; inactive. kek1 (GeneID 34688) [DRSC36700] scored mean ATP z-score 0.386; inactive.

Cals (GeneID 43824) [DRSC17196] scored mean ATP z-score -0.15; inactive. Cals (GeneID 43824) [DRSC21661] gave mean ATP z-score -0.146; inactive. rho-5 (GeneID 2768944) [DRSC26239] scored mean ATP z-score 0.0702; inactive. For rho-5 (GeneID 2768944) [DRSC39726], the values are mean ATP z-score 1.47; inactive. For ClC-c (GeneID 39759) [DRSC10499], the values are mean ATP z-score -0.436; inactive. After knock-down of ClC-c (GeneID 39759) [DRSC39779] the results were mean ATP z-score -0.445; inactive.

Silencing of NaPi-T (GeneID 36651) [DRSC07476] came out at: mean ATP z-score 0.149; inactive. After knock-down of NaPi-T (GeneID 36651) [DRSC24468] the results were mean ATP z-score -0.769; inactive.

Called active (from the list above):
stas (GeneID 32737) [DRSC20104]: mean ATP z-score = 3.18; activity call = active
smo (GeneID 33196) [DRSC00837]: mean ATP z-score = 5.12; activity call = active
